Data published in patent US20220259296A1.
Results are given in words; binding and its absence hold for the method and conditions named. A result given as binding can be weak or reduced; the word gives no strength.

B1: M0124 (antibody, V domains shown)
VH: QSVKESGGRLVTPGTPLTLTCTVSGIDLSRYWMNWVRQAPGKGLEWIGYITTNDKTYYANWAKGRYTISKTSSTTVDLKMTSLTTEDTATYFCARRSSGAYDIWGPGTLVTISS
VL: QPVLTQSPSASATLGASAKLTCTLSSAHKTYYIEWYQQQQGEAPRYLMQLKSDGTYTKGTGVPDRFSGSSSGADRYLIISSVQAEDEADYICGVTGGNVYVFGGGTQLTVTG
B2: M0251 (VHH)
VHH: EVQLVESGGGLVQAGGSLRLSCVASGHTFGNWAMGWFRQAPGKEREFVGAIRWSVGTTNYRDSVKGRFAISRDNARNTVYLQMNRLKPEDTAVYYCAAGTPFVLARINGYDYWGQGTQVTVSS
B3: M0122 (antibody, V domains shown)
VH: QSVKESGGRLVTPGTPLTLTCTVSGFSLYNYAMNWVRQAPGKGLEWIGIINTDGNTNYASWAKGRFTISTTSSTTVDLKITSPTTEDTATYFCPRAVGYHHHALDPWGPGTLVTVSS
VL: ELVLTQSPSVSAALGASAKLTCTLSSAHKTYTIDWYQQQQGEAPRYLMQLKSDGSYTKGTGVPDRFSGSSSGADRYLIIPSVQADDEADYYCGTDYGGGYVFGGGTQLTVTG
B4: M0123 (antibody, V domains shown)
VH: QSVKESEGRLVTPGTPLTLTCTASGFTIGSYHMSWVRQAPGKGLEWIGIIYTDGNTDYANWAKGRFTISKTSTTMDLKMTSLTAADTATYFCARRGYADYGYTFNLWGQGTLVTISS
VL: ELVLTQPASVQVNLGQTVSLTCTADTLSRNYASWYQQKPGQAPVLLIYRDTSRPSGVPDRFSGSSSGNTATLTISGAQAGDEADYYCATGDGSGSSYQFVFGGGTQLTVTG
B5: M0228 (VHH)
VHH: EVQLVESGGGLVQAGGSLRLSCAASGRTINDYTMGWFRQAPGKDREFVSAINWRGSSTYYADSVKGRFTISRDNAKKTIYLQMNLLKPEDTAVYYCARQVSPYVELTATAAYWGQGTQVTVSS

Each binder was assayed against cynomolgus monkey C3 (cynomolgus monkey (Macaca fascicularis)) (assay: sandwich ELISA, cyno C3 captured from serum).

binding | Binder
binds | B1
binds | B2
binds | B3

These binders were tested against cynomolgus monkey C3 (cynomolgus monkey (Macaca fascicularis)) (assay: ELISA, cyno C3 captured from cynomolgus serum by coated polyclonal goat antiserum).

binding | Binder
binds | B1
no binding (tested: about 2000 nM) | B4
no binding (tested: about 2000 nM) | B5
binds | B2
binds | B3

The binders below were run against cynomolgus monkey C3 (cynomolgus monkey (Macaca fascicularis)) (assay: sandwich ELISA, cyno C3 captured from serum by goat antiserum).

binding | Binder
binds | B1
binds | B2
binds | B3
